42 sequences from paper PMC7819943, “Rice protein-binding microarrays: a tool to detect cis-acting elements near promoter regions in rice” can be followed below.

Chains of the proteins cited; added tags and fusions are not shown.
UniProt Q0JBA9, entry or part of it: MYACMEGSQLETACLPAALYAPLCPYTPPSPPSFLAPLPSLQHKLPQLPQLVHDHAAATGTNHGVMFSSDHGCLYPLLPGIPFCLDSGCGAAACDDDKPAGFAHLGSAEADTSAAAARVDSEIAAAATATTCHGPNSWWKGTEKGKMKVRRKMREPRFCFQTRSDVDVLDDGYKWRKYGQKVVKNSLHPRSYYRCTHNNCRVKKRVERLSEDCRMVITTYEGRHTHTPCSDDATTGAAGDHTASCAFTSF

The other results are listed elsewhere or left out.

The target in this experiment is OsWRKY34 (Oryza sativa, UniProt Q0JBA9 1-250). Kind of experiment: protein-binding microarray (RPBM); PBS, 2% BSA, 51.3 ng/ul salmon testes DNA, 50 uM zinc acetate, 200 nM TF, 25 C, 1 h; high values mean tight binding. The settings on record: protein: recombinant; tags: N-terminal polyhistidine and DsRed monomer fusion (pET32a); label: CyDye5-dUTP incorporated in the synthesized complementary strand; 3' TTTTT single-stranded linker to array surface; dsDNA, one strand shown. The gist of the method:
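For the binding signal, per-feature fluorescence intensity was read in arbitrary units on an Axon 4000B scanner. Before scanning, a 2% BSA-blocked custom Agilent array made double-stranded with Cy5-dUTP was washed after 1 h at 25 °C with 200 nM protein and 50 µM zinc acetate. The proteins were Ni–NTA-purified transcription factors with N-terminal polyhistidine and DsRed fusions, expressed in E. coli BL21-CodonPlus.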
Take “TGAGTTTATTTTTTACATGGTTGGTTCCTGTGAGTTCCTACGGAGTCACCTAGTGCAG”: the binding signal is 9040 fluorescence intensity (a.u.). As for “ACTTACTTTCTCCGTTTCATCATGTAAGTCATTCTAGCATCGGAGTCACCTAGTGCAG”, the binding signal is 11600 fluorescence intensity (a.u.). On to “AAATTTGTATAGACGTTTGCTTTTAACTTAGTCCTAAATTCGGAGTCACCTAGTGCAG”, for which the binding signal is 9130 fluorescence intensity (a.u.). With “ATATTTGACCAGAAATTAACGCTGCTGATGCGAGGTCAAACGGAGTCACCTAGTGCAG” the figure was 8550 fluorescence intensity (a.u.); with “CCTATCTCCTTCGTCTCTCTCTCTCAACTTCCACCACCGCCGGAGTCACCTAGTGCAG”, 8100 fluorescence intensity (a.u.); with “AAGCTAATCCAATCCCCAGCTATCTATCTAGCTCGATCCACGGAGTCACCTAGTGCAG”, 8580 fluorescence intensity (a.u.). Next, “GTCATGTATATCATTGTTTGGTCCCTACTGTTGCTAGTTGCGGAGTCACCTAGTGCAG”: 8560 fluorescence intensity (a.u.). With “TCTATTCTCCAGTCAATACCAACTCGCCCCGAATCGATTCCGGAGTCACCTAGTGCAG” the figure was 9200 fluorescence intensity (a.u.). “CGTTACTCCCGACATGCTTCACTGCTACATCTATATCTATCGGAGTCACCTAGTGCAG”: the binding signal is 15400 fluorescence intensity (a.u.). With “CTTCGTATCTCTTTTGGTTATTTATTTTACAACTTTCAAGCGGAGTCACCTAGTGCAG” the figure was 9860 fluorescence intensity (a.u.); with “GGCTAACTTATGCCTTTTATCATTTTGTTGGTCATGATGTCGGAGTCACCTAGTGCAG”, 8960 fluorescence intensity (a.u.); with “TCTCTTTGCTATCTCTACTTGCACATGTCATACATCTAGACGGAGTCACCTAGTGCAG”, 9940 fluorescence intensity (a.u.). For “TTGCAATATCTGAAATTCTATTGACCATCTTGACTCTGTCCGGAGTCACCTAGTGCAG”, the binding signal is 8080 fluorescence intensity (a.u.). Next, “ATAATTTATGTGTGACTATCTATCTATCTTTATCTATCTACGGAGTCACCTAGTGCAG”: 8330 fluorescence intensity (a.u.); “CGCGTCGCGTCACCATGCCAAGCTGTCCCAACCGTACACGCGGAGTCACCTAGTGCAG”: 8760 fluorescence intensity (a.u.); “TCTGCACCCAAAAGCCTCCTTCTTCTTCACTTGTCCTTGTCGGAGTCACCTAGTGCAG”: 9940 fluorescence intensity (a.u.). Turning to “AATTTTGTCTGGTTTTTCTATCGTTTACTACGGTACCGTGCGGAGTCACCTAGTGCAG”, the binding signal was 8300 fluorescence intensity (a.u.). As to “TAGTGTCTCTGCTCTCTGTCGGGTTGGTTCCTGCCTCTCGCGGAGTCACCTAGTGCAG”, the binding signal was 8080 fluorescence intensity (a.u.). With “ATGCATGCTCGATCACACACACACACACGTTGTTGTTATCCGGAGTCACCTAGTGCAG” the figure was 8740 fluorescence intensity (a.u.).

For “GTTGTCCTAGTCATCGGACGCCGCCCACCTACCCGACTACCGGAGTCACCTAGTGCAG”, the binding signal is 9920 fluorescence intensity (a.u.). Turning to “CCATCCCCTGCTTCGCCGGTCCAGGTCGGCTCAATCTCCTCGGAGTCACCTAGTGCAG”, the binding signal is 9850 fluorescence intensity (a.u.). As to “TTTTTTTTTTTTATGGGGTCCTGTGGGCGGAGTAGAACACCGGAGTCACCTAGTGCAG”, the binding signal is 11200 fluorescence intensity (a.u.). On to “ATTCATAAAATTCTGCCGCCTTCTTTTATTTCCTCACTTTCGGAGTCACCTAGTGCAG”, for which the binding signal is 9960 fluorescence intensity (a.u.). In the case of “GGACAGTAAAAAAAAACACAATTTGACCACGTTGACCAATCGGAGTCACCTAGTGCAG”, the binding signal is 11700 fluorescence intensity (a.u.). Next, “AACACTCAACTAATCATACGCTGATGACTCACCCTTTTTTCGGAGTCACCTAGTGCAG”: 9593 ± 67.9 fluorescence intensity (a.u.); “TCTTCTCGCTCTCCTTTCGCTATTAACCTTCTCGACGCCGCGGAGTCACCTAGTGCAG”: 8170 fluorescence intensity (a.u.); “ACTCTGCTCTTATCTTTATAATTTCTTTAATTAATTAATTCGGAGTCACCTAGTGCAG”: 10300 fluorescence intensity (a.u.).

Turning to “CACTATAAATTATCACCACCTCATTCCCGCCATGTCTCACCGGAGTCACCTAGTGCAG”, the binding signal was 14900 fluorescence intensity (a.u.).

Turning to “CTTTCCTATGCATGGTGCATTATATTTCCTCTCTGCAATACGGAGTCACCTAGTGCAG”, the binding signal is 8490 fluorescence intensity (a.u.). On to “ACCCTATAGTTCAGCAAGTTGTTTTACTCATTACTCATTTCGGAGTCACCTAGTGCAG”, for which the binding signal is 10700 fluorescence intensity (a.u.).

“TCAAAACGGCAACTGCATGACCTCCACCACCTCCACCTCCCGGAGTCACCTAGTGCAG”: the binding signal was 8840 fluorescence intensity (a.u.). Turning to “TGGCATATGCAAATTATTCTTTCGTGCCGTCCTTTTACAACGGAGTCACCTAGTGCAG”, the binding signal was 8280 fluorescence intensity (a.u.).

As for “CAAAACGCATGACTCCTAGCACAATCTTCTCCAGTTATCCCGGAGTCACCTAGTGCAG”, the binding signal is 9060 fluorescence intensity (a.u.). Next, “GTCCTTCAACTTGATACCGAATCCCACTTTCGTCCTTGAACGGAGTCACCTAGTGCAG”: 8180 fluorescence intensity (a.u.). Next, “CCTCATATTTCTCCTTGCATATACACTGTCTGCACCCACCCGGAGTCACCTAGTGCAG”: 9820 fluorescence intensity (a.u.). On to “GAACGTGACTTGTCATACTTGCCACATTACGCTGATCTTTCGGAGTCACCTAGTGCAG”, for which the binding signal was 9960 fluorescence intensity (a.u.). With “AGTCCGTCCACCTCGGGTTCCGCGTCAATCACGCTAGCCCCGGAGTCACCTAGTGCAG” the figure was 10900 fluorescence intensity (a.u.). Turning to “GATCGTTTCTATTCCTAATTCGTTTTCTTTATACTCCCTCCGGAGTCACCTAGTGCAG”, the binding signal was 11100 fluorescence intensity (a.u.).

For “CCCTTGCACGAATCTCAAAGGCCTCGTCACCGTCCGATCGCGGAGTCACCTAGTGCAG”, the binding signal is 8020 fluorescence intensity (a.u.). For “TCATGTCCAAATCACGTCTCCATCTTCTTCTATCTCATCCCGGAGTCACCTAGTGCAG”, the binding signal was 8340 fluorescence intensity (a.u.). Next, “GTAGTTGGGGTAGGATATAGAAAAGTTTGAATTAGAATAACGGAGTCACCTAGTGCAG”: 11600 fluorescence intensity (a.u.); “GTAGCGTACTATTTATATCTAAATTTATCTTTTTTGTTTCCGGAGTCACCTAGTGCAG”: 8130 fluorescence intensity (a.u.).
